Experimental data from article PMC8934646.
Results are given in words; binding and its absence hold for the method and conditions named. Sequences can lack the tags named with a protein.

Amino acid sequences for entries named in this document (tags omitted).
UniProt O75643: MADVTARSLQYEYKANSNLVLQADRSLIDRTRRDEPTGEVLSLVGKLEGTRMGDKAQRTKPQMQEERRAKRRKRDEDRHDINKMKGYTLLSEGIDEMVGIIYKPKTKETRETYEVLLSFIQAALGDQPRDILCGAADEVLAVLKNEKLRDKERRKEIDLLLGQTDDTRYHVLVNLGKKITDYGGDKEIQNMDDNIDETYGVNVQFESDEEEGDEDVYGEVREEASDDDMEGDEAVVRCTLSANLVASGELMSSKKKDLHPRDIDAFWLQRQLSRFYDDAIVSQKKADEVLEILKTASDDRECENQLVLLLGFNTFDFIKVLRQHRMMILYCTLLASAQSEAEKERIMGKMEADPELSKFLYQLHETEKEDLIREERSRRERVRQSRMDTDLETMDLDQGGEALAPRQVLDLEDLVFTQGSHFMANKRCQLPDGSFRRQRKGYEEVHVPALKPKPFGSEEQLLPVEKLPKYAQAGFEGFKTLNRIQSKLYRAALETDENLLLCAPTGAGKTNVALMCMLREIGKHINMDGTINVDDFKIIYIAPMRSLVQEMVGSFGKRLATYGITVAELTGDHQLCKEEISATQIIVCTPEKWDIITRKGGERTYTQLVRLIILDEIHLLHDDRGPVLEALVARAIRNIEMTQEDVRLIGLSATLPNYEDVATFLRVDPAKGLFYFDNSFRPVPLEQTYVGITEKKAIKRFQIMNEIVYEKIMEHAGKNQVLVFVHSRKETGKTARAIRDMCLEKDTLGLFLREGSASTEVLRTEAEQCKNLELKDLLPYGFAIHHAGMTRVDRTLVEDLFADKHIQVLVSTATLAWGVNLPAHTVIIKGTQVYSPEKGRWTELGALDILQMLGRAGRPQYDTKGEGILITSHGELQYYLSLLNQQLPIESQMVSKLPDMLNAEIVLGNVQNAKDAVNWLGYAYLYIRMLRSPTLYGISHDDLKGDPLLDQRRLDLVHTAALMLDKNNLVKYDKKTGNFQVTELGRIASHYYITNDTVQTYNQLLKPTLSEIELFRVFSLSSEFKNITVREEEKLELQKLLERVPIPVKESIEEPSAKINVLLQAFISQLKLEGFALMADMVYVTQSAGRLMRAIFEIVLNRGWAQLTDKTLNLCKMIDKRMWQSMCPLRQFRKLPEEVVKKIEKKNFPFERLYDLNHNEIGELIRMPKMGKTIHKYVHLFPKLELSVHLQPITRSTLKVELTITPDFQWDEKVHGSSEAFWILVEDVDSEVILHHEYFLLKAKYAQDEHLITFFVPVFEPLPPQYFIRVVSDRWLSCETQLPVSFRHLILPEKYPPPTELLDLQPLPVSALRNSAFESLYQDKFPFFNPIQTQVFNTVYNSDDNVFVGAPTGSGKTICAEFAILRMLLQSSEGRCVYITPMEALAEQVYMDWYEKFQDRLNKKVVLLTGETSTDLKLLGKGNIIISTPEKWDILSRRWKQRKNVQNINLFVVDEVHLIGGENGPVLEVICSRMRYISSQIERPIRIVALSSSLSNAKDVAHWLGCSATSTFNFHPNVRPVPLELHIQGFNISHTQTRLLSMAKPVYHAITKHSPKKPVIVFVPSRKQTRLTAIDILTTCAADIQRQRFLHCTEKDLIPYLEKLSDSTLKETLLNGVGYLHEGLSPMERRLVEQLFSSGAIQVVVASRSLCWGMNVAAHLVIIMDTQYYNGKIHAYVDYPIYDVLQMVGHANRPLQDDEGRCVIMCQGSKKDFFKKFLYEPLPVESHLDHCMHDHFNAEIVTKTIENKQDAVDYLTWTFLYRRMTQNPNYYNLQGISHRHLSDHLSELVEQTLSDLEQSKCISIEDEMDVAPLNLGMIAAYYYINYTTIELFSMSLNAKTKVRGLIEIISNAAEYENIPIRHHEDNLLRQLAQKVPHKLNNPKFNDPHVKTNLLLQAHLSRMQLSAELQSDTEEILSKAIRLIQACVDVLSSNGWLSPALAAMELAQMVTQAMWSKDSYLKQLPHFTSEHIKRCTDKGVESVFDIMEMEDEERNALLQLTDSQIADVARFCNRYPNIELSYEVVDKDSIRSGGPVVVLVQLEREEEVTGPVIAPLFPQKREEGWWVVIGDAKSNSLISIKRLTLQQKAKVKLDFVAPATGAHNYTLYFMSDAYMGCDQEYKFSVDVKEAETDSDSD

Target: full-length SNRNP200 (SNRNP200^FL) (human) (UniProt O75643)
Experiment: SEC; analytical SEC, Superdex 200 increase 3.2/300, 20 mM Tris-HCl pH 8.0, 200 mM NaCl, 1 mM DTT; 75 μg SNRNP200 variant with 1.5-fold molar excess of a GST-TSSC4 variant, or 30 μg GST-TSSC4 variant with equimolar PRPF8^Jab1ΔC, in 50 μl, 10 min on ice; fractions by SDS-PAGE; both purified

Binder | binding
GST-TSSC4 variant 2 (GST-TSSC4^V2) (protein, UniProt Q9Y5U2 1-329) MAEAGTGEPSPSVEGEHGTEYDTLPSDTVSLSDSDSDLSLPGGAEVEALSPMGLPGEEDSGPDEPPSPPSGLLPATVQPFHLRGMSSTFSQRSRDIFDCLEGAARRAPSSVAHTSMSDNGGFKRPLAPSGRSPVEGLGRAHRSPASPRVPPVPDYVAHPERWTKYSLEDVTEVSEQSNQATALAFLGSQSLAAPTDCVSSAAQDPSSCGEGRVIFTKPVRGVEARHERKRVLGKVGEPGRGGLGNPATDRGEGPVELAHLAGPGSPEAEEWGSHHGGLQEVEALSGSVHSGSVPGLPPVETVGFHGSRKRSRDHAANKSSSPEDPGAEV | no binding
GST-TSSC4 variant 3 (GST-TSSC4^V3) (protein, UniProt Q9Y5U2 1-329) MAEAGTGEPSPSVEGEHGTEYDTLPSDTVSLSDSDSDLSLPGGAEVEALSPMGLPGEEDSGPDEPPSPPSGLLPATVQPFHLRGMSSTFSQRSRDIFDCLEGAARRAPSSVAHTSMSDNGGFKRPLAPSGRSPVEGLGRAHRSPASPRVPPVPDYVAHPERATKASLEDVTEVSEQSNQATALAFLGSQSLAAPTDCVSSAAQDPSSCGEGRVIFTKPVRGVEARHERKRVLGKVGEPGRGGLGNPATDRGEGPVELAHLAGPGSPEAEEWGSHHGGLQEVEALSGSVHSGSVPGLPPVETVGFHGSRKRSRDHAANKSSSPEDPGAEV | no binding
